PubChem BioAssay AID652259 | Drosophila RNAi Screening Center, 2013

Aim: 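Genome-wide hunt for genes that control Wingless pathway activity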 (primary screen)
Cell system: Drosophila clone 8 imaginal disc epithelial cells
Reagent: long dsRNA against Drosophila genes
Challenge: pathway stimulated by co-transfected Wingless expression plasmid
Measured: 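Firefly luciferase from a tcf-site Wingless reporter, measured alongside co-transfected Renilla luciferase that tracks transfection; pathway stimulated by a Wingless plasmid; the firefly-to-Renilla ratio is not deposited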
Scale: firefly reporter light: higher = more Wg reporter light, before normalisation; Renilla control light: higher = more transfected or surviving cells
Active means: 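Strong candidates differ from their plate mean by at least two out of four per-plate statistical tests; weak candidates meet just one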
Calls: active = candidate regulator (raises or lowers reporter); inactive = not a candidate
In all, the deposit lists about 22,000 reagents; shown is an unselected part of those that have a named target and a result. In the full data, 233 (1.1%) are marked active. 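Light values are raw, unnormalised plate reads; the ratio scores behind the reporter calls were not deposited.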 A number with no mark means an inactive call. Names joined by + are all predicted targets of the reagent. Reagent sequences are not shown. Not stated in the record: the amount of reagent, the time to read-out, the dose of the treatment.

| Target gene | DRSC id | firefly reporter light, replicate 1 | firefly reporter light, replicate 2 | Renilla control light, replicate 1 | Renilla control light, replicate 2 |
| --- | --- | --- | --- | --- | --- |
| PH4alphaMP | DRSC17031 | 5866 | – | 2339 | – |
| CG11134 | DRSC19384 | 2855 | – | 1040 | – |
| pico | DRSC19430 | 16599 | – | 8332 | – |
| Cyfip | DRSC15679 | 12003 | – | 1872 | – |
| mRpL2 | DRSC10896 | 5984 | – | 2208 | – |
| CG6357 | DRSC06979 | 12092 | – | 3785 | – |
| CG33234 | DRSC07994 | 3083 | – | 1719 | – |
| Rhau | DRSC03200 | 9809 | – | 2903 | – |
| Meltrin | DRSC16274 | 7203 | – | 2588 | – |
| Meltrin | DRSC21693 | 4.76e5 | 4.19e5 | 1.95e5 | 1.83e5 |
| Hex-A | DRSC18259 | 16065 | – | 8327 | – |
| Npc2c | DRSC15523 | 17088 | – | 4306 | – |
| Tsp66E | DRSC09683 | 1282 | 8579 | 908 | 2531 |
| wry | DRSC00352 | 2144 | 5148 | 668 | 1915 |
| wry | DRSC00456 | 3792 | 12186 | 1924 | 3846 |
| wry | DRSC22414 | 5.04e5 | 5.01e5 | 1.92e5 | 59873 |
| CG15211 | DRSC19657 | 21946 | – | 11248 | – |
| CG7173 | DRSC11812 | 6067 | – | 802 | – |
| CG9701 | DRSC11093 | 4882 | – | 2161 | – |
| CG14841 | DRSC14965 | 15053 | – | 3770 | – |
| CG32643 | DRSC18962 | 1895 | – | 748 | – |
| CG14969 | DRSC08428 | 5996 | – | 2441 | – |
| CG10958 | DRSC17768 | 3296 | 6746 | 1108 | 1687 |
| CG15771 | DRSC18077 | 25751 | – | 7144 | – |
| Cp36 | DRSC18452 | 17147 | – | 8614 | – |
| CG31637 | DRSC02270 | 16330 | – | 8477 | – |
| CG31637 | DRSC03263 | 3040 | 8374 | 745 | 969 |
| CG15279 | DRSC01935 | 5764 | – | 2376 | – |
| uri | DRSC04111 | 10802 | – | 2688 | – |
| CG14323 | DRSC14802 | 25259 | – | 6144 | – |
| CG9616 | DRSC16518 | 10208 | – | 2133 | – |
| LManIV | DRSC03222 | 3908 | 10853 | 1296 | 3467 |
| emc | DRSC08715 | 2601 | – | 684 | – |
| fws | DRSC02969 | 6866 | – | 2656 | – |
| CG9123 | DRSC20156 | 23180 | – | 11824 | – |
| D2hgdh | DRSC18577 | 4044 | 8681 | 1513 | 3232 |
| CG32811 | DRSC22649 | 6.74e5 | 6.55e5 | 2.65e5 | 1.41e5 |
| CG34454 | DRSC07864 | 5266 | – | 1952 | – |
| LManVI | DRSC03224 | 2560 | 4003 | 997 | 2000 |
| CG14693 | DRSC14916 | 19728 | – | 5097 | – |
| CG33322 | DRSC03204 | 2293 | 6392 | 593 | 2515 |
| dor | DRSC18765 | 4258 | 6658 | 2182 | 3297 |
| Or67c | DRSC11242 | 5035 | – | 2020 | – |
| sfl | DRSC08828 | 2080 | – | 1239 | – |
| sfl | DRSC08830 | 3152 | – | 1122 | – |
| loh | DRSC01122 | 17014 | – | 7149 | – |
| loh | DRSC02943 | 2779 | 5754 | 813 | 3142 |
| tst | DRSC14212 | 1691 | 4059 | 1381 | 1430 |
| CG32563 | DRSC19934 | 20405 | – | 9853 | – |
| CG13124 | DRSC02220 | 6743 | – | 1656 | – |
| ey | DRSC17173 | 28311 | – | 11467 | – |
| CG7916 | DRSC01901 | 2738 | 6101 | 914 | 2496 |
| Pvf2 | DRSC00968 | 2709 | – | 976 | – |
| Pvf2 | DRSC02283 | 4713 | 8400 | 870 | 3515 |
| Fkbp59 | DRSC03323 | 2203 | 6577 | 784 | 2560 |
| Acsx2 | DRSC14308 | 13671 | – | 2759 | – |
| CG32533 | DRSC19443 | 1986 | 7341 | 705 | 3312 |
| CG32533 | DRSC19553 | 12237 | – | 6932 | – |
| CG12024 | DRSC08229 | 17204 | – | 4728 | – |
| yellow-h | DRSC17141 | 16973 | – | 10532 | – |
| CG6277 | DRSC16008 | 7665 | – | 3168 | – |
| byn | DRSC11332 | 8025 | – | 4368 | – |
| RpL17 | DRSC18293 | 2630 | 8996 | 551 | 1932 |
| Tspo + rempA | DRSC00533 | 9379 | – | 3580 | – |
| kl-5 (retired record) | DRSC20707 | 22486 | – | 11565 | – |
| shd | DRSC11129 | 4084 | – | 2107 | – |
| Sry-alpha | DRSC16867 | 6215 | – | 2838 | – |
| gwl | DRSC16305 | 1605 | 4532 | 701 | 917 |
| GstE4 | DRSC06674 | 6501 | – | 2010 | – |
| mtsh | DRSC03070 | 4135 | 6549 | 1056 | 2850 |
| CG17300 | DRSC10260 | 7028 | – | 3410 | – |
| CG43335 | DRSC15764 | 13302 | – | 3751 | – |
| CG43335 | DRSC22671 | 4.55e5 | 4.73e5 | 2.05e5 | 1.23e5 |

Just “Renilla control light, replicate 1”, for 8 of the entries above:
ey [DRSC17173]	11467
CG7916 [DRSC01901]	914
Pvf2 [DRSC00968]	976
Pvf2 [DRSC02283]	870
Fkbp59 [DRSC03323]	784
Acsx2 [DRSC14308]	2759
CG32533 [DRSC19443]	705
CG32533 [DRSC19553]	6932
